Measurements: the supplement of paper PMC10849652
The other results are listed elsewhere or left out.

Amino acid sequences for entries named in this document (tags omitted). A change or cut given only in a name is not applied to a line headed by its entry.
UniProt Q99549: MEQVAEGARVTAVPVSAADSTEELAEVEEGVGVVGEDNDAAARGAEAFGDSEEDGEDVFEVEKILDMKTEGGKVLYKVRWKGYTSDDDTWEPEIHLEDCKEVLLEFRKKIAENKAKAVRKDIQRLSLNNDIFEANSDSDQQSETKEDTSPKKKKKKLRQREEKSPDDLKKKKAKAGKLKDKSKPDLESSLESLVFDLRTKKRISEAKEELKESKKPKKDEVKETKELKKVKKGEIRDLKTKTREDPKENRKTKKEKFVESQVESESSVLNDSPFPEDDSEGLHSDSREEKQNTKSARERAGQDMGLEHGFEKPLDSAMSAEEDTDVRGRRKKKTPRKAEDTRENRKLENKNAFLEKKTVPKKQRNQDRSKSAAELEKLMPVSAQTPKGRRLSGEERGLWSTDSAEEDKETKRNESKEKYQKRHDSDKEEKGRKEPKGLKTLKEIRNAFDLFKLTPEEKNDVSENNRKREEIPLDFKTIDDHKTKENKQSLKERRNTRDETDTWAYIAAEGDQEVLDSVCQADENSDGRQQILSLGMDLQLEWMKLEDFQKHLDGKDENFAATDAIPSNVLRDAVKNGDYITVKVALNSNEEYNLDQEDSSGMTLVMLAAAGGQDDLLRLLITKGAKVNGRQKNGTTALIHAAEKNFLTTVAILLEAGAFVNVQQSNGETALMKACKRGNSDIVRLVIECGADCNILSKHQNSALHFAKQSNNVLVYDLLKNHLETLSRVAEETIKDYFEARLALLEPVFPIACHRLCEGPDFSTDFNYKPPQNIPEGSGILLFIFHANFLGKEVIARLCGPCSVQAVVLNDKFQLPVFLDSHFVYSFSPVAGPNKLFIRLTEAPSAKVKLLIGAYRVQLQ
UniProt Q96BX8: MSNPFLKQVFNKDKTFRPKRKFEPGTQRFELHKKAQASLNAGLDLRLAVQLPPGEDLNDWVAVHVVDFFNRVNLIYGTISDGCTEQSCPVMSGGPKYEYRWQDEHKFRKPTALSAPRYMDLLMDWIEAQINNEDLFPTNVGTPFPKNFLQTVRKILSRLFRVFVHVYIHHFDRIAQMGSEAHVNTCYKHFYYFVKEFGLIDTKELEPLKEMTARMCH
UniProt Q9H3L0: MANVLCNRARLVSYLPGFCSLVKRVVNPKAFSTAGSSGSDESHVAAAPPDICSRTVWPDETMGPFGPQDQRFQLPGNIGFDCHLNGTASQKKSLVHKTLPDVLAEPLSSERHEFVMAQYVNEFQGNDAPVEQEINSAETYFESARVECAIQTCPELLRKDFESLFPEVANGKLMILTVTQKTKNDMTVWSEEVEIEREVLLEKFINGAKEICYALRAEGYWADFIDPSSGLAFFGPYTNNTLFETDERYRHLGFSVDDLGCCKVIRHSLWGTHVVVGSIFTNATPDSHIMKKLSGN
UniProt Q8N3F8: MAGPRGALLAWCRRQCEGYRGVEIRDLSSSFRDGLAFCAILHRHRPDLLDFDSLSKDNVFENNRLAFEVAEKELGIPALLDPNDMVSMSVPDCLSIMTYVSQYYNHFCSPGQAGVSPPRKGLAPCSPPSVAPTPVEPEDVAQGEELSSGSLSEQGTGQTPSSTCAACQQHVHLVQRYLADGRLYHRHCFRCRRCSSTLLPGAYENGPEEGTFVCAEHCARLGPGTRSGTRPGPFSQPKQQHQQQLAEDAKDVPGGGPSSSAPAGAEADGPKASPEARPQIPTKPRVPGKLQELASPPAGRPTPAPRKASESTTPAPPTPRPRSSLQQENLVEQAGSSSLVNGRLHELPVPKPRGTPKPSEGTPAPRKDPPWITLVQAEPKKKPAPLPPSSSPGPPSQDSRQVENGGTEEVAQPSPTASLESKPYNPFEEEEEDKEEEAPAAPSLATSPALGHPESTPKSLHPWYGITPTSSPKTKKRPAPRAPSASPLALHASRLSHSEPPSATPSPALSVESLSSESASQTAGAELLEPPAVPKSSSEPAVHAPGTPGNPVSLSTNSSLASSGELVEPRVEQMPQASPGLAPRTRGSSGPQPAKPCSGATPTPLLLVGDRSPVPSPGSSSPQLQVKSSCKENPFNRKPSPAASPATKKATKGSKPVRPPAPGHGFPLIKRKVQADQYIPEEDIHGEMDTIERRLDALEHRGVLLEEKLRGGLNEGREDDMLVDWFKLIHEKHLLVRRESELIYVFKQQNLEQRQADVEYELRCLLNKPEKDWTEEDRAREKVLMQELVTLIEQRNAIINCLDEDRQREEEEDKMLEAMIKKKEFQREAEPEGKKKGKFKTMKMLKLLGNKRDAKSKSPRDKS
UniProt Q99583: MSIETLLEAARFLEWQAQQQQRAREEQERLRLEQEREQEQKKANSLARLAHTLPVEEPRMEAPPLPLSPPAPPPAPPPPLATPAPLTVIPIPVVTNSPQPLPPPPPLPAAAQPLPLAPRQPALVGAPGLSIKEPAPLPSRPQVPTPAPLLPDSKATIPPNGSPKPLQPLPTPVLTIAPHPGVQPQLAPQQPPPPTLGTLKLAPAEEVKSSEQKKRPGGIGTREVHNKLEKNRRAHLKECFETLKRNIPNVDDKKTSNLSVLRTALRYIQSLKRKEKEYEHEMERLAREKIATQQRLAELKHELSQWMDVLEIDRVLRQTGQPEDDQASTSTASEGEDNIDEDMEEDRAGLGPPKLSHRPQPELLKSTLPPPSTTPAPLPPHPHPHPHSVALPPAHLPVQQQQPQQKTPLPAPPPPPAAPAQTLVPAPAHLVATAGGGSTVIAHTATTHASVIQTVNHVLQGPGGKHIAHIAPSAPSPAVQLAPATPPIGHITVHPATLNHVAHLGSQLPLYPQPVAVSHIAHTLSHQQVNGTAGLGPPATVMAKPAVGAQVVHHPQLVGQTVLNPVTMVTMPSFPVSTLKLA
UniProt Q8N344: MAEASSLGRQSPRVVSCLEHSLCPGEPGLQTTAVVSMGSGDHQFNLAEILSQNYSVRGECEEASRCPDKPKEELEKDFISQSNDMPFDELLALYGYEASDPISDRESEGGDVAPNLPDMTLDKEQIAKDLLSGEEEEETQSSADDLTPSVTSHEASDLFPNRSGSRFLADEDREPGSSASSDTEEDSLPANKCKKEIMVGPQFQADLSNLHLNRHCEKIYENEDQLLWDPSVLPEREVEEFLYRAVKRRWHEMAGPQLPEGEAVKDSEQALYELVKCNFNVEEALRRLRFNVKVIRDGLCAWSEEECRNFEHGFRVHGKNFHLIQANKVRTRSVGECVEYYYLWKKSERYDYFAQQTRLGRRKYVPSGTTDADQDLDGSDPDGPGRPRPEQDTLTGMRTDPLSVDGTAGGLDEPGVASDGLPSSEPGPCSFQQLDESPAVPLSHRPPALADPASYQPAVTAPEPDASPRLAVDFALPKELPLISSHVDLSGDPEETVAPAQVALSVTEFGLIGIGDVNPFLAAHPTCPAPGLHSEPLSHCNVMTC
UniProt Q9Y5U8: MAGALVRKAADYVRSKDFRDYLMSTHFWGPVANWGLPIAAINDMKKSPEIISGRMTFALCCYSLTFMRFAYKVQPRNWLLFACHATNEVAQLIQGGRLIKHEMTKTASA
UniProt O96033: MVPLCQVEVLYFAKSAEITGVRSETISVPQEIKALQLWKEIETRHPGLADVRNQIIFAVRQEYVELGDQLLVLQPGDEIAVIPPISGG
UniProt O95297: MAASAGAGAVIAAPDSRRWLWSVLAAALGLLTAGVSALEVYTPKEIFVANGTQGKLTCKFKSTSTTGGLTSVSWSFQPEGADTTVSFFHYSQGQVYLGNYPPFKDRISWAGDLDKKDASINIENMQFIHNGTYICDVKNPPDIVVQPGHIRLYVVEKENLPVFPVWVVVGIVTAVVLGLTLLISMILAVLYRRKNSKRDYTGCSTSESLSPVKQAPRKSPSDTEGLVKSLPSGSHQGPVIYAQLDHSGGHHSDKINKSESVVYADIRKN
UniProt Q9UI43: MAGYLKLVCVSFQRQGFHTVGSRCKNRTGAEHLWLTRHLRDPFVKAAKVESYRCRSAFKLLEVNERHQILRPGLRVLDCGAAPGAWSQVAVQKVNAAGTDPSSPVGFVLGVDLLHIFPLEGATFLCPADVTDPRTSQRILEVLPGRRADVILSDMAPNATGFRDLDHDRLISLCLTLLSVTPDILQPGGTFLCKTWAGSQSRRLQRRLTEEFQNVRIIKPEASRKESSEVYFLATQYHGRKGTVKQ
UniProt Q86TA1: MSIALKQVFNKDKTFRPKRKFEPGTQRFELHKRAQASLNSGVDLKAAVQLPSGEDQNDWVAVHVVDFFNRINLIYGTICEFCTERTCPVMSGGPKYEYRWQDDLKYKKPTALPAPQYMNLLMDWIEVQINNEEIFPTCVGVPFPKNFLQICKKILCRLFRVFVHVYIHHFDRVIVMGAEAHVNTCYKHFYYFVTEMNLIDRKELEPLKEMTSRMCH
UniProt Q29983, whole entry, looked up: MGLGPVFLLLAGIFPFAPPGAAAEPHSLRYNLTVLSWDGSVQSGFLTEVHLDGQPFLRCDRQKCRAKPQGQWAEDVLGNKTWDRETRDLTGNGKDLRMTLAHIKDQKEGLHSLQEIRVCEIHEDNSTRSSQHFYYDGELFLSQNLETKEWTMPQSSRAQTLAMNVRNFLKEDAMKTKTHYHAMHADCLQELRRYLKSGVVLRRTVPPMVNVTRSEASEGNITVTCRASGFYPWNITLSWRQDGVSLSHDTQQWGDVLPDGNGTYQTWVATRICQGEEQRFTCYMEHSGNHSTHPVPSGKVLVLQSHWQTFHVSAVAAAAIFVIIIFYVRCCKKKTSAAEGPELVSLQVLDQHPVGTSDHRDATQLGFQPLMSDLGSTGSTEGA
UniProt O75030: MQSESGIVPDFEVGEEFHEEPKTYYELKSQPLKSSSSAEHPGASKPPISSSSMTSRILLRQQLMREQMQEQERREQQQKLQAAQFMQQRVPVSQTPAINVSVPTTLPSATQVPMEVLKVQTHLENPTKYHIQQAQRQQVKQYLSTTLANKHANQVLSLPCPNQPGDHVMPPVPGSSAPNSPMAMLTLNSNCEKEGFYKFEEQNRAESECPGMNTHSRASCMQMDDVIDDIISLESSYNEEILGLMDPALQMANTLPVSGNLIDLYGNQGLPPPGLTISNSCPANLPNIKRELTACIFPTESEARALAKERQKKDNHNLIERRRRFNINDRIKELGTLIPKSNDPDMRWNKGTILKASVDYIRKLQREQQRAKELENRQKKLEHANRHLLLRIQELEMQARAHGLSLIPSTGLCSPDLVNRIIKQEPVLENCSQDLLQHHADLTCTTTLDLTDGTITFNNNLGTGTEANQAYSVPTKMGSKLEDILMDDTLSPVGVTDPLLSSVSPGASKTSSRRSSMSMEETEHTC
UniProt P55197: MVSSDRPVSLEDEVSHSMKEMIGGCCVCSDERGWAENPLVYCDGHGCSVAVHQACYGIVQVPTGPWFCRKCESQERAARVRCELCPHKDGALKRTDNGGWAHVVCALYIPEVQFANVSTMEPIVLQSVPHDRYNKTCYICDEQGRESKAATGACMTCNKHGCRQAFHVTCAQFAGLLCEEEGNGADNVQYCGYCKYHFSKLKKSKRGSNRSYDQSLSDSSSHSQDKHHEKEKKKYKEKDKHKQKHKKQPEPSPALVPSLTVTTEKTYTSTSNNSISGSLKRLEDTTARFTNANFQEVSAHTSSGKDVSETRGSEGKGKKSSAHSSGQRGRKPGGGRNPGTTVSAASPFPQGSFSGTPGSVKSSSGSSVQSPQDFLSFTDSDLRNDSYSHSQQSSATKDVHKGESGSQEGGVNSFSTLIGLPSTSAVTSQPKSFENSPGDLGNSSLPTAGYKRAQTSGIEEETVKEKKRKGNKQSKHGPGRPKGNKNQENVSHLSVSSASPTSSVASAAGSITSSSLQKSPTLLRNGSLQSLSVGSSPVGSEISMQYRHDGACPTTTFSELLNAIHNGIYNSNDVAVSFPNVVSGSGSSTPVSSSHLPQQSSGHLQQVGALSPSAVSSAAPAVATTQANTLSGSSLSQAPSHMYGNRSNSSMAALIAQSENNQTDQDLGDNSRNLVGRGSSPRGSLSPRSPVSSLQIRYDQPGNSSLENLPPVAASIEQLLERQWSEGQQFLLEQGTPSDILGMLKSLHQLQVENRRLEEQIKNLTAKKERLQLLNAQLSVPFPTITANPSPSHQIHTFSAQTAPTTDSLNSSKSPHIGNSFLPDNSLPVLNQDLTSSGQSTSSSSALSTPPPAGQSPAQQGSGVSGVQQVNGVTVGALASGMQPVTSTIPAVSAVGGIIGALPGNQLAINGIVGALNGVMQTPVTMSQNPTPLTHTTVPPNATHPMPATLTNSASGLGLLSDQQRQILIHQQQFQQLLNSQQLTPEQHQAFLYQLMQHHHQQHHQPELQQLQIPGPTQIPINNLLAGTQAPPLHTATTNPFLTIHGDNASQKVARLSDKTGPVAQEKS
UniProt Q9NPA3, whole entry, looked up: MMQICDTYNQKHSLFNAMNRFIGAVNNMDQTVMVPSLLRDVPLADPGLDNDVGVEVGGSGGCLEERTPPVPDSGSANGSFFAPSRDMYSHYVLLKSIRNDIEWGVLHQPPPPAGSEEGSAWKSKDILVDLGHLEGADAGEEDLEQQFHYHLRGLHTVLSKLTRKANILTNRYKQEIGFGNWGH
UniProt Q13015: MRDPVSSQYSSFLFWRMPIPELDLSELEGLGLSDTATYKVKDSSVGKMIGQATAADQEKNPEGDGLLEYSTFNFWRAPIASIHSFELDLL

Compound: CC(=O)c1cnc2ccc(-c3cc(Cl)c(O)c(Cl)c3)nc2c1N[C@H]1CC[C@H](CN(C)C)CC1
Experiment: log2 fold change, soluble protein after heating vs DMSO (PISA); higher = thermal stabilisation; K562 cells, 10 uM, 30 min; active = over 0.2 and 3.5 SD of the protein, either way, in both replicates (recomputed)
Procedure, shortened: (§1)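 Values are thermal stability changes relative to control samples and are taken from duplicates. They are stated as log2 fold changes. Before quantification by TMTpro 16plex LC-MS/MS with equalised channel sums, K562 cells at 2×10^6 cells/mL were treated with 10 μM compound for 30 min, heated in aliquots for 3 min across 48°C-58°C, pooled, extracted in PBS with 0.5% NP-40 at 4°C, and centrifuged at 21,000xg for 90 min to give the soluble supernatant.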

Target | log2 fold change
MPHOSPH8 isoform 2 (UniProt Q99549) | inactive: 0.026
MICAL2 (UniProt O94851) | inactive: -0.116
MOB3A (UniProt Q96BX8) | inactive: 0.014
MMADHC (UniProt Q9H3L0) | inactive: -0.011
MICALL1 (UniProt Q8N3F8) | inactive: -0.028
MNT (UniProt Q99583) | inactive: -0.185
MKRN3 (UniProt Q13064) | inactive: -0.259
MRPL42 (UniProt Q9Y6G3) | inactive: -0.045
MIER2 (UniProt Q8N344) | inactive: -0.029
MRFAP1 (UniProt Q9Y605) | inactive: 0.206
MPC1 (UniProt Q9Y5U8) | inactive: 0.188
MOCS2 (UniProt O96033) | inactive: 0.082
MPZL1 isoform 3 (UniProt O95297) | inactive: -0.045
MMAA (UniProt Q8IVH4) | inactive: -0.054
MRM2 (UniProt Q9UI43) | inactive: -0.119
MOB3B (UniProt Q86TA1) | inactive: -0.026
MORC2 (UniProt Q9Y6X9) | inactive: -0.201
MICA (UniProt Q29983) | inactive: 0.021
MMTAG2 (UniProt Q9BU76) | inactive: 0.052
MLH1 (UniProt P40692) | inactive: -0.112
MKKS (UniProt Q9HB66) | inactive: -0.091
MITF (UniProt O75030) | inactive: -0.212
MICAL1 isoform 4 (UniProt Q8TDZ2) | inactive: 0.261

Compound: CC(C)(C)Cn1c(N)nc2ccc(-c3[nH]c(C(C)(C)C)nc3-c3ccc(F)cc3)nc21 [ralimetinib]
Experiment: as above
Procedure, shortened: as §1

Target | log2 fold change
MKRN1 (UniProt Q9UHC7) | inactive: 0.063
MPHOSPH8 isoform 2 (UniProt Q99549) | inactive: 0.271
MLLT10 (UniProt P55197) | inactive: 0.052
MMRN1 (UniProt Q13201) | inactive: 0.014
MICAL2 (UniProt O94851) | inactive: 0.038
MOB3A (UniProt Q96BX8) | inactive: 0.121
MMADHC (UniProt Q9H3L0) | inactive: 0.073
MICALL1 (UniProt Q8N3F8) | inactive: -0.227
MNT (UniProt Q99583) | inactive: -0.017
MKRN3 (UniProt Q13064) | inactive: -0.05
MRPL42 (UniProt Q9Y6G3) | inactive: 0.057
MRFAP1 (UniProt Q9Y605) | inactive: -0.022
MPC1 (UniProt Q9Y5U8) | inactive: 0.065
MRPL18 (UniProt Q9H0U6) | inactive: 0.268
MID1IP1 (UniProt Q9NPA3) | inactive: -0.022
MOB2 isoform 3 (UniProt Q70IA6) | inactive: 0.039
MLLT11 (UniProt Q13015) | inactive: -0.204
MON1A (UniProt Q86VX9) | inactive: -0.213
MICA (UniProt Q29983) | inactive: -0.045
MINDY4 (UniProt Q4G0A6) | inactive: 0.165
MMTAG2 (UniProt Q9BU76) | inactive: 0.18
MRNIP (UniProt Q6NTE8) | inactive: -0.07
MICAL1 isoform 4 (UniProt Q8TDZ2) | inactive: -0.247
